Source: publication PMC11588656
No constants are given. Whether binding was seen depends on the method and setting. In cells and extracts the contact can be indirect. Some binding calls cover weakened binding; strength is not graded here.

The chains behind the UniProt entries cited, without tags or fusion partners.
UniProt Q9NRC8: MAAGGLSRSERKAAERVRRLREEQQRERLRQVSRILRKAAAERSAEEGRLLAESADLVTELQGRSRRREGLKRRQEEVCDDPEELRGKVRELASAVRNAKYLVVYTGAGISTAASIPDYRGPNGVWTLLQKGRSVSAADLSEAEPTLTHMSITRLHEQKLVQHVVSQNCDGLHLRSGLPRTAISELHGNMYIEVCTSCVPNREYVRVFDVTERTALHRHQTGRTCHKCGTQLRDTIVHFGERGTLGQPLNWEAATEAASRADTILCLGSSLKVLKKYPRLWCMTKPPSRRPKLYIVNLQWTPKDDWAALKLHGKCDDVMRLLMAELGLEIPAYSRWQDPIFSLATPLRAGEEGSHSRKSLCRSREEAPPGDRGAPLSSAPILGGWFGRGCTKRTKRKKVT
UniProt Q02650: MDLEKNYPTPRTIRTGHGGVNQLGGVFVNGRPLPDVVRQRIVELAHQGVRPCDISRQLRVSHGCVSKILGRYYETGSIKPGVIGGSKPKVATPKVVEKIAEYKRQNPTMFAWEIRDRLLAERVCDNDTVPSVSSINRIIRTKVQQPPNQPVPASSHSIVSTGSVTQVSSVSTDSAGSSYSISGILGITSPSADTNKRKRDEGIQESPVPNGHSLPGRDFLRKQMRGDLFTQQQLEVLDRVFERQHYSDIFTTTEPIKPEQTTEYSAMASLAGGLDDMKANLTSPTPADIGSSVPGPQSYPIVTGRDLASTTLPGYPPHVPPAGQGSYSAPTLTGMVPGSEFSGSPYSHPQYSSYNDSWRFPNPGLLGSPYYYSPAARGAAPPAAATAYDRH

Key:
SIRT7–Flag = SIRT7–Flag (UniProt Q9NRC8); assay: co-IP; Flag-specific immunoprecipitation (anti-Flag beads, overnight, 4 °C) from HAFTL cells retrovirally transduced with empty vector or SIRT7–Flag; RIPA lysis, benzonase for 8 h; washes with 500 mM NaCl buffer; Pax5 and SIRT7 immunoblotting
Pax5-FLAG (mouse) = Pax5-FLAG (mouse) (UniProt Q02650); assay: co-IP; FLAG-specific immunoprecipitation from HEK293F cells transiently co-expressing SIRT7-HA with empty vector or Pax5-FLAG; FLAG and HA immunoblotting

Substance	binding (SIRT7–Flag)	binding (Pax5-FLAG (mouse))
Pax5 (endogenous, HAFTL cells) (from UniProt Q02650 1-391)	binds	
SIRT7-HA (from UniProt Q9NRC8 1-400) (enzyme)		binds
